In the supplement of paper PMC10849652 one finds log2 fold change data, which are given here for 17 targets.

Sequences of proteins named here, by UniProt entry; tags and fusion partners are left off. A change or cut given only in a name is not applied to a line headed by its entry.
UniProt Q9NS18: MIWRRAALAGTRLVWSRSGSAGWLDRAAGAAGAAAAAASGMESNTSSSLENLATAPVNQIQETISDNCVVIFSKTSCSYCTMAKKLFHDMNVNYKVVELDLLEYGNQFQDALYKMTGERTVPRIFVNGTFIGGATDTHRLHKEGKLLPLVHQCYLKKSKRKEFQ
UniProt P28799: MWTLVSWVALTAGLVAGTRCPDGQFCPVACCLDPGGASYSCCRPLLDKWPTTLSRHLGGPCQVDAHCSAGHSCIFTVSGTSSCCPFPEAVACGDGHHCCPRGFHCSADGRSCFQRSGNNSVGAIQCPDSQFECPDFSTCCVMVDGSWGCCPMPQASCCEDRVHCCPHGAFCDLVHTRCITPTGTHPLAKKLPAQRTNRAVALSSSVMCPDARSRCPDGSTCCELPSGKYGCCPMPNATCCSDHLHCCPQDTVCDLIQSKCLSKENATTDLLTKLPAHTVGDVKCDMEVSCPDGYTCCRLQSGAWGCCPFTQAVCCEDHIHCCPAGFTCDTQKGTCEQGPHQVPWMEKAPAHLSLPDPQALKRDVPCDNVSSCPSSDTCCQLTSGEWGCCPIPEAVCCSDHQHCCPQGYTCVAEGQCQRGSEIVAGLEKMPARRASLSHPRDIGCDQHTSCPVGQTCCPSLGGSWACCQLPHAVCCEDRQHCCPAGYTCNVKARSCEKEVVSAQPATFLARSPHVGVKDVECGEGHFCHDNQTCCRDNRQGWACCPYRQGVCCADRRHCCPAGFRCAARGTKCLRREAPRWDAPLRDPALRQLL
UniProt Q9NPB8: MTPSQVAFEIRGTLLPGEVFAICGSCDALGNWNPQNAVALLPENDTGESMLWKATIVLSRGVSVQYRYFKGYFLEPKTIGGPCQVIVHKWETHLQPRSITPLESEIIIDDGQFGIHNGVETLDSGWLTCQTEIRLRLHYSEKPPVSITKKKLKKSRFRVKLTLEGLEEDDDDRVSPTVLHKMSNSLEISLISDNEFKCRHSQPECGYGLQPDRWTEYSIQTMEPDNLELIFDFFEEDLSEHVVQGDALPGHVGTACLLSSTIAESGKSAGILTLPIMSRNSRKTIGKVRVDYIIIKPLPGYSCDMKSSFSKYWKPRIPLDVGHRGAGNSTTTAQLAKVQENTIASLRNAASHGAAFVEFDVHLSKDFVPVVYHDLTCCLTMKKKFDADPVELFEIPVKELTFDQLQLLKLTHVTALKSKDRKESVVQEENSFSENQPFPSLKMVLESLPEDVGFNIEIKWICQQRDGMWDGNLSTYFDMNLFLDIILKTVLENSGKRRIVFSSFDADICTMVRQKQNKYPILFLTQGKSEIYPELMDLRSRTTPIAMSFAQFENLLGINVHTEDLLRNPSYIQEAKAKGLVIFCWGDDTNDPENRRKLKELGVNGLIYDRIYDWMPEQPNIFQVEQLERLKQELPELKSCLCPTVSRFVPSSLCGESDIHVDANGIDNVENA
UniProt Q5T7V8: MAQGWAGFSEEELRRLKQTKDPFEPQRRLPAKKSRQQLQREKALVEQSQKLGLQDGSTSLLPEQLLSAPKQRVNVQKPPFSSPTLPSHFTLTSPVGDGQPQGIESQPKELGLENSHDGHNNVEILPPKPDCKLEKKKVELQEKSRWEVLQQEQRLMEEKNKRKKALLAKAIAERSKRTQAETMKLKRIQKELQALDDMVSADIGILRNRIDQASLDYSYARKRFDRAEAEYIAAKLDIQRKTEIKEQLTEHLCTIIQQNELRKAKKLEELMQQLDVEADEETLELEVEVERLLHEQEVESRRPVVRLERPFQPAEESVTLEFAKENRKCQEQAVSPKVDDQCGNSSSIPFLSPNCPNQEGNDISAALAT
UniProt P62873, whole entry, looked up: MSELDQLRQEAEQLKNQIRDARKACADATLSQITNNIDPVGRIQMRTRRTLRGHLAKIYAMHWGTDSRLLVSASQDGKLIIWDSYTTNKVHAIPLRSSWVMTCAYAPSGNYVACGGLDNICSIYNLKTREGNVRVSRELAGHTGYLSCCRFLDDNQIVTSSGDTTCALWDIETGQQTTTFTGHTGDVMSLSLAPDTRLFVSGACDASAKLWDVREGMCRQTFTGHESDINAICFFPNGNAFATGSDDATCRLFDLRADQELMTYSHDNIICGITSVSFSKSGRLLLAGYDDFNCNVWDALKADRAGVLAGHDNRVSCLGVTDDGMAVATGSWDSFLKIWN
UniProt P62879, whole entry, looked up: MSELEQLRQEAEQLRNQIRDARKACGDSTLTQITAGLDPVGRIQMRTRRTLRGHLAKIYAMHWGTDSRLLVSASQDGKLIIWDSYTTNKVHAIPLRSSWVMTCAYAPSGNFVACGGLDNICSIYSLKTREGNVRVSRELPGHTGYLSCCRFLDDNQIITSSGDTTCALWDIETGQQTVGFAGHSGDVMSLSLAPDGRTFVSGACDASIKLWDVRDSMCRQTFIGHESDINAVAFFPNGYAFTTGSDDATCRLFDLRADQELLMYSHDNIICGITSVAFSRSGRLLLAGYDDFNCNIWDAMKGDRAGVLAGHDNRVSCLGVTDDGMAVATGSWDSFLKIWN
UniProt P49840: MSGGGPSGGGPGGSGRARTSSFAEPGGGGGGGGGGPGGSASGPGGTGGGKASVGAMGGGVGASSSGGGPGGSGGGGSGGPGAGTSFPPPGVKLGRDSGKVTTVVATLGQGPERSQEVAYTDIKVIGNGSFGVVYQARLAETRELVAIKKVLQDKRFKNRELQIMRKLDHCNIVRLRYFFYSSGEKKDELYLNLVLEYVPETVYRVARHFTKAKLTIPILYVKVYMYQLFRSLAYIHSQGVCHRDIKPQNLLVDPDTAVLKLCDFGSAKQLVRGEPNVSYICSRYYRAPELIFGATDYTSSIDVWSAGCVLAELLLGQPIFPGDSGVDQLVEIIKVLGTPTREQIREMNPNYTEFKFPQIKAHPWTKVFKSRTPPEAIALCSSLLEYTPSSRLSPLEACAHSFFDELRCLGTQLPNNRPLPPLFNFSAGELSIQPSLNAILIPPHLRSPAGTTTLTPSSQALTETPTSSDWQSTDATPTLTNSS
UniProt Q86SX6: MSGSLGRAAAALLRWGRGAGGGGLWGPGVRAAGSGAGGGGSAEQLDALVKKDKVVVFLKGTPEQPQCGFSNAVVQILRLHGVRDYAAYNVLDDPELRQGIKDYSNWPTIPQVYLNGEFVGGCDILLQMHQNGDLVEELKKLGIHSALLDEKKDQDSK
UniProt Q9Y692: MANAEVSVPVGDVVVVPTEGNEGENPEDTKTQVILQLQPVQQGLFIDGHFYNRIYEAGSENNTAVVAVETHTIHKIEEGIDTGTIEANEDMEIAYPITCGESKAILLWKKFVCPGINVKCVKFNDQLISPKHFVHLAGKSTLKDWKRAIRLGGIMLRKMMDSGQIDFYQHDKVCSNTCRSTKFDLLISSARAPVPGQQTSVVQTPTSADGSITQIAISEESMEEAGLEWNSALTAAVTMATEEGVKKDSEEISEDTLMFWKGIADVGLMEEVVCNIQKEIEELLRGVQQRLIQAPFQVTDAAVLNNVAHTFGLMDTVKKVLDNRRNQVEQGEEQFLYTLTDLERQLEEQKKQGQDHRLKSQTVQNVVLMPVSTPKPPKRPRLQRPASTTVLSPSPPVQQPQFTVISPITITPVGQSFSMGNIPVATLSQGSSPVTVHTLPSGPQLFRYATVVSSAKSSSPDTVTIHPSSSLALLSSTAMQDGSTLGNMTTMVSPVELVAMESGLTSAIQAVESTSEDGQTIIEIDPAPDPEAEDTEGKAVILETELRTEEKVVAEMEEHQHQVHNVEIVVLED
UniProt P63218: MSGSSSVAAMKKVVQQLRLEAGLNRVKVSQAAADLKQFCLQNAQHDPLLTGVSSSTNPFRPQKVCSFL
UniProt Q9Y4H4: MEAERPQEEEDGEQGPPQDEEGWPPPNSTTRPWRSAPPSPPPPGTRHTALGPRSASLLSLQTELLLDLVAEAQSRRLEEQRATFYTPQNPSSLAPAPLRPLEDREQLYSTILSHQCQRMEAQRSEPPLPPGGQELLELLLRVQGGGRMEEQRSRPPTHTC
UniProt Q9H4G4: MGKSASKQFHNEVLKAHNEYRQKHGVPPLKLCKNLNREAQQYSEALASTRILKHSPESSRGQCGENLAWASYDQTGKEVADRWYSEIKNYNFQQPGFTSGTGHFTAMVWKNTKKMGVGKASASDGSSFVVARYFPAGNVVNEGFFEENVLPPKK
UniProt Q9Y2X7: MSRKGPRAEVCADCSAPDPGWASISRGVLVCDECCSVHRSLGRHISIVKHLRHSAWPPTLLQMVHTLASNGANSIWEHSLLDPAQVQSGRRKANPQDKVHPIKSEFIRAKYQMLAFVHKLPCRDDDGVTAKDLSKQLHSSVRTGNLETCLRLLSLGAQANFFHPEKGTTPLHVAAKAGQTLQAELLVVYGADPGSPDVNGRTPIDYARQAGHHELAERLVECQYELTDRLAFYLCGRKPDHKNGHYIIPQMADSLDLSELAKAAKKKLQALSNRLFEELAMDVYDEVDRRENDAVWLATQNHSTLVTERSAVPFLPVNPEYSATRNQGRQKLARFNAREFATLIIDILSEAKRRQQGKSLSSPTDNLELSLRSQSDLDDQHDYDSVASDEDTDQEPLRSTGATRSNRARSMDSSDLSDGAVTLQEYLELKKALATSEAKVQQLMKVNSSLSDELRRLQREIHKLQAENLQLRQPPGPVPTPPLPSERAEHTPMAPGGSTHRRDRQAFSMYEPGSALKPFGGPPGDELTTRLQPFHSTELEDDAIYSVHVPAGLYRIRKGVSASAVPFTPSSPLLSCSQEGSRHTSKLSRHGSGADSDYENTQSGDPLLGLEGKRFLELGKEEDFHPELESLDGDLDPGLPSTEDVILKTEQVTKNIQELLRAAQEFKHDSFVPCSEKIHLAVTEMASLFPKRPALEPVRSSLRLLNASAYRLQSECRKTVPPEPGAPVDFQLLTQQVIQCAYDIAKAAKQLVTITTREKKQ
UniProt O76003: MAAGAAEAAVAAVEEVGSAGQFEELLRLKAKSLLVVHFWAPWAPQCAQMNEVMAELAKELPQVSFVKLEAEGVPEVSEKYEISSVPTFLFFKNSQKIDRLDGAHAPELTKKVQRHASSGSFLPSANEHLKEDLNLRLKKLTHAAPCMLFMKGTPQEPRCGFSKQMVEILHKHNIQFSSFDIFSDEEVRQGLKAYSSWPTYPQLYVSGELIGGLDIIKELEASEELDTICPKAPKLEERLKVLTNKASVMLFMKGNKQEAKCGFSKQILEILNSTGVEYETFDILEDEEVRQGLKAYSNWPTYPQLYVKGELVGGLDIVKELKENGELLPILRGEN
UniProt Q6Y7W6: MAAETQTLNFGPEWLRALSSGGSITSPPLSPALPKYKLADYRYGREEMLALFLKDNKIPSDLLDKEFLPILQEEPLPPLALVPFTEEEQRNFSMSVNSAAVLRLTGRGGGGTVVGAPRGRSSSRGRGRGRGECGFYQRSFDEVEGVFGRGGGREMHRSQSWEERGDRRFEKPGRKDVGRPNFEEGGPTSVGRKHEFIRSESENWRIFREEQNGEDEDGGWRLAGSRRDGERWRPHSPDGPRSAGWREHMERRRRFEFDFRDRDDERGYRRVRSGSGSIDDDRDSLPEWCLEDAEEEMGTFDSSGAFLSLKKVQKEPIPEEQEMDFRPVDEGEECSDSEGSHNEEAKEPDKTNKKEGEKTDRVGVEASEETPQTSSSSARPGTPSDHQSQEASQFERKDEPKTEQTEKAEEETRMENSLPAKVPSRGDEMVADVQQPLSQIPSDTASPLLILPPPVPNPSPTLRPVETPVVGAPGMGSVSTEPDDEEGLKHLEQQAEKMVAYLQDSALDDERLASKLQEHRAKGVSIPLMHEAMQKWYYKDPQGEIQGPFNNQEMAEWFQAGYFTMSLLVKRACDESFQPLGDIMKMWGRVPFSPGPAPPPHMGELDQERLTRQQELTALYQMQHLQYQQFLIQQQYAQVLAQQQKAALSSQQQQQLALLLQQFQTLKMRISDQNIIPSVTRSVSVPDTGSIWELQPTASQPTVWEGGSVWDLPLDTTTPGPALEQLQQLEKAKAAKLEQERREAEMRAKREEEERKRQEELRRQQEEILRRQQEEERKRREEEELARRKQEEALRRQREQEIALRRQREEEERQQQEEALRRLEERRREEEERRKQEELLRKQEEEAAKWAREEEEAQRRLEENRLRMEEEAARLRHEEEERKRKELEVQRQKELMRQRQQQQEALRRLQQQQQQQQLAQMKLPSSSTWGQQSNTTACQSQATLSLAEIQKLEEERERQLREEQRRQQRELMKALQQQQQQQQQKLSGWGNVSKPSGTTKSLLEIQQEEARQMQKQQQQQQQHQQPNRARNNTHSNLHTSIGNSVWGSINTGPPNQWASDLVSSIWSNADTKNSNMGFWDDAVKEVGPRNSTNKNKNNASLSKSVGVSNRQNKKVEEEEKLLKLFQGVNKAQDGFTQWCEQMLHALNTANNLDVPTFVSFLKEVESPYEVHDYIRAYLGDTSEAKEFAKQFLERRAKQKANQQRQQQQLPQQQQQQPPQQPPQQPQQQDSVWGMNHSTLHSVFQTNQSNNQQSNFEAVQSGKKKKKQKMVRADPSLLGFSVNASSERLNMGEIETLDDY

Some of the results follow.

What all share (assay): log2 fold change, soluble protein after heating vs DMSO (PISA); higher = thermal stabilisation; K562 cells, 10 uM, 30 min; active = over 0.2 and 3.5 SD of the protein, either way, in both replicates (recomputed)
Compound in assay [1]: CN1CCN(CCOc2cc(OC3CCOCC3)c3c(Nc4c(Cl)ccc5c4OCO5)ncnc3c2)CC1 [saracatinib]
The method in brief:
(§1)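 Aliquots of K562 cells (2×10^6 cells/mL) treated with 10 μM compound for 30 min were heated for 3 min over 48°C-58°C. After pooling and extraction in PBS with 0.5% NP-40 at 4°C, soluble protein from a 21,000xg, 90 min spin was quantified by TMTpro 16plex LC-MS/MS with channel sums equalised. Thermal stability is expressed against control samples, from duplicates, as a log2 fold change.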

Compound in assay [2]: CN1CCN(c2nc(C3=C(c4c[nH]c5ccccc45)C(=O)NC3=O)c3ccccc3n2)CC1 [sotrastaurin]
In a few lines: as §1

Compound in assay [3]: CN1CC[C@H](c2c(O)cc(O)c3c(=O)cc(-c4ccccc4Cl)oc23)[C@H](O)C1 [alvocidib]
The method in brief: as §1

Compound in assay [4]: CN1CCc2c(c3ccccc3n2Cc2ccc(C(=O)NO)cc2)C1 [Tubastatin A]
In a few lines:
as §1

Compound in assay [5]: CNC(=O)C1=CC=CC=C1NC2=NC(=NC=C2Cl)NC3=C(C=C(C=C3)N4CCOCC4)OC
The method in brief:
as §1

Compound in assay [6]: CNC(=O)c1ccc(Nc2ncc(C(F)(F)F)c(NCc3nccnc3N(C)S(C)(=O)=O)n2)cc1 [defactinib]
In a few lines: as §1

Compound in assay [7]: CNCc1ccc(-c2[nH]c3cc(F)cc4c3c2CCNC4=O)cc1 [rucaparib]
In a few lines: as §1

Compound in assay [8]: CNc1nc(-c2ccc3c(N)n[nH]c3c2)cc(N2C[C@@H](C(=O)NC3CCCCC3)CC[C@H]2C)n1
The method in brief:
as §1

Compound in assay [9]: COC(=O)N[C@@H](C)CNc1nccc(-c2cn(C(C)C)nc2-c2cc(Cl)cc(NS(C)(=O)=O)c2F)n1 [encorafenib]
The method in brief:
as §1

Compound in assay [10]: COC(=O)[C@H](CCSC)NC(=O)C1=C(C=C(C=C1)NC[C@H](CS)N)C2=CC=CC=C2
The method in brief: as §1

Regarding GLRX2 isoform 2 (UniProt Q9NS18), the log2 fold change in assay [1] was inactive: 0.038; in [2], inactive: -0.008; in assay [3] it was inactive: -0.022; in [4], inactive: -0.113; in assay [5] it was inactive: 0.041; in [6], inactive: 0.023. For the same target, the log2 fold change was inactive: 0.102 in assay [7], inactive: -0.121 in assay [8], inactive: -0.074 in assay [9] and inactive: 0.047 in assay [10].
Turning to GRN (UniProt P28799), the log2 fold change in assay [1] was inactive: -0.063; in assay [2], inactive: 0.068; in [3] it was inactive: 0.058; in [4] it was inactive: 0.059; in assay [5], inactive: 0.034; in assay [6] it was inactive: 0.047. The log2 fold change in [8] is inactive: 0.038; in assay [10] it was inactive: -0.017.
GOLGB1 isoform 2 (UniProt Q14789): the log2 fold change in assay [1] was inactive: -0.056; in [2], inactive: -0.121; in assay [4], inactive: 0.029; in [5], inactive: 0.048; in assay [6], inactive: 0; in [7] it was inactive: 0.02. Also, the log2 fold change was inactive: -0.001 in assay [8], inactive: -0.04 in assay [9] and inactive: 0.003 in assay [10].
As for GPCPD1 (UniProt Q9NPB8), the log2 fold change was inactive: -0.053 in assay [1]; inactive: -0.063 in assay [2]; inactive: -0.301 in assay [3]; inactive: 0.146 in assay [7]; inactive: 0.254 in [8]; inactive: 0.164 in assay [9].
Take GORAB (UniProt Q5T7V8): the log2 fold change in [1] is inactive: -0.109; in [2], inactive: 0.033; in assay [4], inactive: -0.01; in [5], inactive: 0.062; in assay [6], inactive: -0.055; in assay [7] it was inactive: 0.015. Also, the log2 fold change was inactive: 0.115 in [8], inactive: 0.014 in assay [9] and inactive: 0.101 in assay [10].
With GNB1 (UniProt P62873), the log2 fold change in assay [1] was inactive: -0.005; in assay [2], inactive: 0.121; in [3], inactive: -0.19; in assay [4], inactive: 0.102; in [5], inactive: 0.032; in assay [6], inactive: -0.028. The log2 fold change in [7] was inactive: 0; in assay [8], inactive: 0.085; in assay [9], inactive: -0.055; in [10], inactive: -0.04.
Take GINS2 (UniProt Q9Y248): the log2 fold change in [1] is inactive: -0.078; in assay [2], inactive: -0.17; in assay [4] it was inactive: 0.076; in [5], inactive: 0.025; in assay [6], inactive: -0.067; in [7], inactive: -0.005. Also, the log2 fold change in assay [8] was inactive: 0.203; in assay [9], inactive: 0.017; in assay [10], inactive: 0.057.
In the case of GNB2 (UniProt P62879), the log2 fold change in [1] is inactive: -0.033; in [2], inactive: 0.019; in assay [4], inactive: 0.015; in assay [5], inactive: -0.002; in [6], inactive: -0.028; in assay [7] it was inactive: -0.004. Also, the log2 fold change is inactive: 0.039 in assay [8], inactive: 0.005 in assay [9] and inactive: -0.065 in assay [10].
In the case of GSK3A (UniProt P49840), the log2 fold change in [1] was inactive: -0.007; in [2], active: 0.337; in assay [4], inactive: -0.007; in assay [5] it was inactive: -0.009; in assay [6], inactive: 0.18; in assay [7], inactive: 0.22. The log2 fold change is inactive: -0.041 in assay [8], inactive: 0.005 in assay [9] and inactive: -0.051 in assay [10].
With GLRX5 (UniProt Q86SX6), the log2 fold change is inactive: -0.029 in [1]; inactive: 0.041 in [2]; inactive: -0.013 in [3]; inactive: 0.078 in assay [4]; inactive: 0.007 in assay [5]; inactive: -0.027 in assay [6]. Besides, the log2 fold change in assay [7] was inactive: -0.053; in assay [8], inactive: 0.068; in assay [9], inactive: 0.048; in assay [10], inactive: -0.045.
On to GMEB1 (UniProt Q9Y692), for which the log2 fold change was inactive: -0.055 in [1]; inactive: -0.06 in assay [2]; inactive: -0.022 in [4]; inactive: 0.028 in [5]; inactive: -0.06 in assay [6]; inactive: -0.047 in assay [7]. For the same target, the log2 fold change was inactive: -0.051 in assay [8], inactive: 0.043 in [9] and inactive: -0.003 in [10].
Take GNG5 (UniProt P63218): the log2 fold change in assay [1] is inactive: 0.022; in assay [2] it was inactive: 0.033; in assay [4] it was inactive: 0.049; in assay [5], inactive: 0.028; in [6], inactive: -0.041; in assay [7], inactive: -0.002. For the same target, the log2 fold change in [8] was inactive: -0.041; in assay [9], inactive: -0.073; in assay [10], inactive: -0.008.
GPSM3 (UniProt Q9Y4H4): the log2 fold change in assay [1] was inactive: -0.134; in assay [2] it was inactive: 0.19; in assay [3], inactive: -0.509; in assay [6] it was inactive: 0.175; in assay [7], inactive: -0.004; in assay [8], inactive: -0.118. Further, the log2 fold change in assay [9] is inactive: -0.128; in assay [10], inactive: -0.278.
GLIPR2 (UniProt Q9H4G4): the log2 fold change in [1] is inactive: 0.002; in assay [2], inactive: -0.027; in [4] it was inactive: -0.002; in assay [5], inactive: 0.036; in assay [6] it was inactive: 0.047; in assay [7] it was inactive: 0.015. Further, the log2 fold change is inactive: 0.035 in [8], inactive: -0.062 in [9] and inactive: -0.013 in assay [10].
Take GIT1 isoform 3 (UniProt Q9Y2X7): the log2 fold change in [1] was inactive: -0.274; in [2], inactive: -0.283; in assay [3] it was inactive: -0.166; in [7], inactive: 0.547; in assay [8], inactive: 0.133; in [9], inactive: 0.263.
Regarding GLRX3 (UniProt O76003), the log2 fold change in [1] was inactive: -0.017; in assay [2], inactive: -0.066; in assay [4], inactive: 0.015; in [5], inactive: 0.053; in [6] it was inactive: -0.091; in [7], inactive: -0.063. Further, the log2 fold change is inactive: -0.023 in assay [8], inactive: 0.029 in assay [9] and inactive: -0.03 in [10].
Regarding GIGYF2 (UniProt Q6Y7W6), the log2 fold change in assay [1] is inactive: -0.097; in assay [2] it was inactive: -0.111; in assay [4] it was inactive: 0.023; in assay [5], inactive: 0.005; in assay [6], inactive: -0.04; in [7], inactive: 0.065. Moreover, the log2 fold change is inactive: 0.016 in assay [8], inactive: -0.018 in [9] and inactive: -0.022 in assay [10].
